Data published in PMC10913587.
Results are given in words; binding and its absence hold for the method and conditions named. Some binding calls cover weakened binding; strength is not graded here.

Chains of the proteins cited; added tags and fusions are not shown. Residues count along the entry.
UniProt O35235, residues 139-316: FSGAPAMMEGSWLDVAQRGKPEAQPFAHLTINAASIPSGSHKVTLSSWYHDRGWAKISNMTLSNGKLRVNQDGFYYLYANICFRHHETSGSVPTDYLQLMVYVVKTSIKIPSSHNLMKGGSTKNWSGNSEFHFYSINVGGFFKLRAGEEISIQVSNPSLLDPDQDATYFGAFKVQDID

Target: T1, RANK on the cell membranes of RAW 264.7 cells (mouse (endogenous in RAW 264.7)) (UniProt O35305)
T1 sequence: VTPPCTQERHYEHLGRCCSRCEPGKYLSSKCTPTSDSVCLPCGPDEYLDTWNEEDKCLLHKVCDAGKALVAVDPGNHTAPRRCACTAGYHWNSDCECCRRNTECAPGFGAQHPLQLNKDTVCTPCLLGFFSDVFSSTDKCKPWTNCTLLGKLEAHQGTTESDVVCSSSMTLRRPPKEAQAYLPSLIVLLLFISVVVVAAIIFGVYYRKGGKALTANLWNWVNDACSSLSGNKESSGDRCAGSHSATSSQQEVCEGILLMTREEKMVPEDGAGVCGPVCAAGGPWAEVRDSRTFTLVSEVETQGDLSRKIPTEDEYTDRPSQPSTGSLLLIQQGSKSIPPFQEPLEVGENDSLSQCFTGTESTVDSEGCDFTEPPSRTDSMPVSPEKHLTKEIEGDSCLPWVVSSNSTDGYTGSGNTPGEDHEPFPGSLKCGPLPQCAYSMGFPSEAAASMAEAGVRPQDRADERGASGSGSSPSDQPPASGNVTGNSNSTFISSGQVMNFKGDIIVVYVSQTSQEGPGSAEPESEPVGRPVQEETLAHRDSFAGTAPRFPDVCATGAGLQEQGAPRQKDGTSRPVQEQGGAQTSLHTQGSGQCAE
Assay: depletion of RANKL from culture medium by cells, RANKL left in the supernatant measured by ELISA; RAW 264.7 cells (2 x 10^5 per well, 6-well plates) incubated with RANKL (50 ng/ml) and SAHA (0, 0.5, 1 μM) for 72 h at 37 °C; supernatant cleared by centrifugation; RANKL solutions not incubated with cells as positive controls; only the binder purified

- binding: binds
Substance: recombinant murine RANKL (receptor activator of nuclear factor κB ligand) (from UniProt O35235 139-316)
